These results are taken from article PMC7788704.

No constants are given. Whether binding was seen depends on the method and setting. In cells and extracts the contact can be indirect. Some binding calls cover weakened binding; strength is not graded here.

The assay addresses T1, Flavin-containing monooxygenase 5 (human (endogenous in L02)) (UniProt P49326).
T1 sequence: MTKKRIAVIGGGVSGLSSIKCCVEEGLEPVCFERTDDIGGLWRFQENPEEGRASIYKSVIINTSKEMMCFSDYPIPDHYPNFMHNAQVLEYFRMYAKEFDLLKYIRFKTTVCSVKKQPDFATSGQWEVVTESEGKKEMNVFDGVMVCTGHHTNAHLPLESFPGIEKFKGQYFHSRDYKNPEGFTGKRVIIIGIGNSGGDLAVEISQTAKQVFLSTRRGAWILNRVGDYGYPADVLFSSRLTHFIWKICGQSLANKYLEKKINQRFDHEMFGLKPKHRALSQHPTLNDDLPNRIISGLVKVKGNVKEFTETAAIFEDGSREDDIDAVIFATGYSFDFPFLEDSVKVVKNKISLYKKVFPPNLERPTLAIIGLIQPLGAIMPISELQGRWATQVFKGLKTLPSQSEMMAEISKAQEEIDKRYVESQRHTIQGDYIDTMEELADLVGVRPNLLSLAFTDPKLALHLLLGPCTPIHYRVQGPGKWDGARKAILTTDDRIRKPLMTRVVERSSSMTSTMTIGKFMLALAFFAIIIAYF
In words: co-IP; anti-Fmo5 coupled to protein A-Sepharose beads in RIPA buffer overnight at 4 °C, added to L02 cell lysate for 2 h at 4 °C; IP samples blotted for Fmo5 and PPARα.

B1: PPARα (protein, UniProt Q07869 1-468)
chain: MVDTESPLCPLSPLEAGDLESPLSEEFLQEMGNIQEISQSIGEDSSGSFGFTEYQYLGSCPGSDGSVITDTLSPASSPSSVTYPVVPGSVDESPSGALNIECRICGDKASGYHYGVHACEGCKGFFRRTIRLKLVYDKCDRSCKIQKKNRNKCQYCRFHKCLSVGMSHNAIRFGRMPRSEKAKLKAEILTCEHDIEDSETADLKSLAKRIYEAYLKNFNMNKVKARVILSGKASNNPPFVIHDMETLCMAEKTLVAKLVANGIQNKEAEVRIFHCCQCTSVETVTELTEFAKAIPGFANLDLNDQVTLLKYGVYEAIFAMLSSVMNKDGMLVAYGNGFITREFLKSLRKPFCDIMEPKFDFAMKFNALELDDSDISLFVAAIICCGDRPGLLNVGHIEKMQEGIVHVLRLHLQSNHPDDIFLFPKLLQKMADLRQLVTEHAQLVQIIKKTESDAALHPLLQEIYRDMY
Take B1: the binding entry is given as “binds”.
